According to the supplement of paper PMC8728848:
This is one part of the list.

Assays:
Assay in all cases: glycan array binding signal (z-score within array); higher = stronger binding
Settings in all cases: glycan notation: IUPAC condensed, linker removed
[1] = test system: Gal(b1-3)[Fuc(a1-4)]GlcNAc(b1-6)GalNAc
How it was run: (§1)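 Negative Z-scores can be read as non-binding. The Z-score is calculated within each array and then averaged across arrays of one protein sequence at different concentrations or buffers and across linkers. Arrays, 3228 in all, were curated from the Consortium for Functional Glycomics database and kept only where the protein sequence was available.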

[2] = test system: Gal(b1-3)[Fuc(a1-4)]GlcNAc
How it was run: as §1

[3] = test system: Gal(b1-3)[GlcNAc(b1-6)]GalNAc
How it was run: as §1

[4] = test system: Gal(b1-3)[Neu5Ac(a2-6)]GalNAc
How it was run: as §1

[5] = test system: Gal(b1-3)[Neu5Ac(a2-6)]GlcNAc(b1-6)Gal(b1-4)Glc
How it was run: as §1

[6] = test system: Gal(b1-3)[Neu5Ac(b2-6)]GalNAc
How it was run: as §1

[7] = test system: Gal(b1-4)GalNAc(a1-3)[Fuc(a1-2)]Gal(b1-4)GlcNAc
How it was run: as §1

[8] = test system: Gal(b1-4)GalNAc(b1-3)[Fuc(a1-2)]Gal(b1-4)GlcNAc
How it was run: as §1

Gal(b1-4)Gal = test system: Gal(b1-4)Gal
How it was run: as §1

Gal(b1-4)Glc6S = test system: Gal(b1-4)Glc6S
How it was run: as §1

[9] = test system: Gal(b1-4)GlcNAc(a1-6)Gal(b1-4)GlcNAc
How it was run: as §1

[10] = test system: Gal(b1-4)GlcNAc(b1-2)Man(a1-3)Man(b1-4)GlcNAc(b1-4)GlcNAc
How it was run: as §1

[11] = test system: Gal(b1-4)GlcNAc(b1-2)Man(a1-3)[Gal(b1-4)GlcNAc(b1-2)Man(a1-6)]Man(b1-4)GlcNAc(b1-4)GlcNAc
How it was run: as §1

[12] = test system: Gal(b1-4)GlcNAc(b1-2)Man(a1-3)[Gal(b1-4)GlcNAc(b1-2)Man(a1-6)]Man(b1-4)GlcNAc(b1-4)[Fuc(a1-6)]GlcNAc
How it was run: as §1

[13] = test system: Gal(b1-4)GlcNAc(b1-2)Man(a1-3)[Gal(b1-4)GlcNAc(b1-2)][GlcNAc(b1-4)]Man(b1-4)GlcNAc(b1-4)GlcNAc
How it was run: as §1

[14] = test system: Gal(b1-4)GlcNAc(b1-2)Man(a1-3)[GlcNAc(b1-2)Man(a1-6)]Man(b1-4)GlcNAc(b1-4)GlcNAc
How it was run: as §1

[15] = test system: Gal(b1-4)GlcNAc(b1-2)Man(a1-3)[Man(a1-6)]Man(b1-4)GlcNAc(b1-4)GlcNAc
How it was run: as §1

[16] = test system: Gal(b1-4)GlcNAc(b1-2)Man(a1-6)Man(b1-4)GlcNAc(b1-4)GlcNAc
How it was run: as §1

[17] = test system: Gal(b1-4)GlcNAc(b1-2)Man(a1-6)[GlcNAc(b1-2)Man(a1-3)]Man(b1-4)GlcNAc(b1-4)GlcNAc
How it was run: as §1

[18] = test system: Gal(b1-4)GlcNAc(b1-2)Man(a1-6)[Man(a1-3)]Man(b1-4)GlcNAc(b1-4)GlcNAc
How it was run: as §1

Gal(b1-4)GlcNAc(b1-2)Man = test system: Gal(b1-4)GlcNAc(b1-2)Man
How it was run: as §1

[19] = test system: Gal(b1-4)GlcNAc(b1-2)[Gal(b1-4)GlcNAc(b1-4)]Man(a1-3)[Gal(b1-4)GlcNAc(b1-2)Man(a1-6)]Man(b1-4)GlcNAc(b1-4)GlcNAc
How it was run: as §1

[20] = test system: Gal(b1-4)GlcNAc(b1-2)[Gal(b1-4)GlcNAc(b1-4)]Man(a1-3)[Gal(b1-4)GlcNAc(b1-2)[Gal(b1-4)GlcNAc(b1-6)]Man(a1-6)]Man(b1-4)GlcNAc(b1-4)GlcNAc
How it was run: as §1

[21] = test system: Gal(b1-4)GlcNAc(b1-2)[Gal(b1-4)GlcNAc(b1-4)]Man(a1-3)[GlcNAc(b1-4)][Gal(b1-4)GlcNAc(b1-2)Man(a1-6)]Man(b1-4)GlcNAc(b1-4)GlcNAc
How it was run: as §1

[22] = test system: Gal(b1-4)GlcNAc(b1-2)[Gal(b1-4)GlcNAc(b1-4)]Man(a1-3)[GlcNAc(b1-4)][Gal(b1-4)GlcNAc(b1-2)[Gal(b1-4)GlcNAc(b1-6)]Man(a1-6)]Man(b1-4)GlcNAc(b1-4)GlcNAc
How it was run: as §1

[23] = test system: Gal(b1-4)GlcNAc(b1-2)[Gal(b1-4)GlcNAc(b1-4)]Man(a1-3)[GlcNAc(b1-4)][Gal(b1-4)GlcNAc(b1-2)[Gal(b1-4)GlcNAc(b1-6)]Man(a1-6)]Man(b1-4)GlcNAc(b1-4)[Fuc(a1-6)]GlcNAc
How it was run: as §1

[24] = test system: Gal(b1-4)GlcNAc(b1-2)[Gal(b1-4)GlcNAc(b1-6)]Man(a1-6)[Gal(b1-4)GlcNAc(b1-2)Man(a1-3)]Man(b1-4)GlcNAc(b1-4)GlcNAc
How it was run: as §1

[25] = test system: Gal(b1-4)GlcNAc(b1-2)[Gal(b1-4)GlcNAc(b1-6)]Man(a1-6)[Gal(b1-4)GlcNAc(b1-2)Man(a1-3)]Man(b1-4)GlcNAc(b1-4)[Fuc(a1-6)]GlcNAc
How it was run: as §1

[26] = test system: Gal(b1-4)GlcNAc(b1-2)[Gal(b1-4)GlcNAc(b1-6)]Man(a1-6)[GlcNAc(b1-4)][Gal(b1-4)GlcNAc(b1-2)Man(a1-3)]Man(b1-4)GlcNAc(b1-4)GlcNAc
How it was run: as §1

[27] = test system: Gal(b1-4)GlcNAc(b1-3)Gal(b1-3)GlcNAc
How it was run: as §1

[28] = test system: Gal(b1-4)GlcNAc(b1-3)Gal(b1-4)GlcNAc(b1-3)Gal(b1-4)GlcNAc
How it was run: as §1

[29] = test system: Gal(b1-4)GlcNAc(b1-3)Gal(b1-4)GlcNAc
How it was run: as §1

[30] = test system: Gal(b1-4)GlcNAc(b1-3)Gal(b1-4)Glc
How it was run: as §1

[31] = test system: Gal(b1-4)GlcNAc(b1-3)Gal(b1-4)[Fuc(a1-3)GlcNAc(b1-6)]Gal(b1-4)Glc
How it was run: as §1

[32] = test system: Gal(b1-4)GlcNAc(b1-3)Gal(b1-4)[Fuc(a1-3)]GlcNAc(b1-3)Gal(b1-4)[Fuc(a1-3)]GlcNAc
How it was run: as §1

[33] = test system: Gal(b1-4)GlcNAc(b1-3)GalNAc
How it was run: as §1

[34] = test system: Gal(b1-4)GlcNAc(b1-3)[Gal(b1-4)GlcNAc(b1-6)]Gal(b1-4)GlcNAc
How it was run: as §1

[35] = test system: Gal(b1-4)GlcNAc(b1-3)[Gal(b1-4)GlcNAc(b1-6)]GalNAc
How it was run: as §1

[36] = test system: Gal(b1-4)GlcNAc(b1-3)[GlcNAc(b1-6)]Gal(b1-4)GlcNAc
How it was run: as §1

[37] = test system: Gal(b1-4)GlcNAc(b1-6)Gal(b1-4)GlcNAc
How it was run: as §1

[38] = test system: Gal(b1-4)GlcNAc(b1-6)GalNAc
How it was run: as §1

[39] = test system: Gal(b1-4)GlcNAc(b1-6)[Gal(b1-3)]GalNAc
How it was run: as §1

Gal(b1-4)GlcNAc6P = test system: Gal(b1-4)GlcNAc6P
How it was run: as §1

Gal(b1-4)GlcNAc = test system: Gal(b1-4)GlcNAc
How it was run: as §1

Gal(b1-4)Glc = test system: Gal(b1-4)Glc
How it was run: as §1

Gal(b1-6)Gal = test system: Gal(b1-6)Gal
How it was run: as §1

Gal3S(b1-3)GalNAc = test system: Gal3S(b1-3)GalNAc
How it was run: as §1

Gal3S(b1-3)GlcNAc = test system: Gal3S(b1-3)GlcNAc
How it was run: as §1

[40] = test system: Gal3S(b1-3)[Fuc(a1-4)]GlcNAc
How it was run: as §1

Gal3S(b1-4)Glc6S = test system: Gal3S(b1-4)Glc6S
How it was run: as §1

Gal3S(b1-4)GlcNAc6S = test system: Gal3S(b1-4)GlcNAc6S
How it was run: as §1

Gal3S(b1-4)GlcNAc = test system: Gal3S(b1-4)GlcNAc
How it was run: as §1

Substance: Wza (Escherichia coli), P0A930
- glycan array binding signal (z-score) [1]: 2.92
- glycan array binding signal (z-score) [2]: 0.48
- glycan array binding signal (z-score) [3]: -0.325
- glycan array binding signal (z-score) [4]: -0.551
- glycan array binding signal (z-score) [5]: 0.8
- glycan array binding signal (z-score) [6]: -0.193
- glycan array binding signal (z-score) [7]: -0.57
- glycan array binding signal (z-score) [8]: -1.67
- glycan array binding signal (z-score) (Gal(b1-4)Gal): -0.894
- glycan array binding signal (z-score) (Gal(b1-4)Glc6S): 0.463
- glycan array binding signal (z-score) [9]: -1.08
- glycan array binding signal (z-score) [10]: 0.005
- glycan array binding signal (z-score) [11]: -1.83
- glycan array binding signal (z-score) [12]: -0.063
- glycan array binding signal (z-score) [13]: -1.33
- glycan array binding signal (z-score) [14]: 2.09
- glycan array binding signal (z-score) [15]: -0.371
- glycan array binding signal (z-score) [16]: 1.02
- glycan array binding signal (z-score) [17]: -0.451
- glycan array binding signal (z-score) [18]: -0.746
- glycan array binding signal (z-score) (Gal(b1-4)GlcNAc(b1-2)Man): 1.36
- glycan array binding signal (z-score) [19]: -0.4
- glycan array binding signal (z-score) [20]: -0.468
- glycan array binding signal (z-score) [21]: -1.9
- glycan array binding signal (z-score) [22]: -0.958
- glycan array binding signal (z-score) [23]: -0.703
- glycan array binding signal (z-score) [24]: 0.806
- glycan array binding signal (z-score) [25]: -0.419
- glycan array binding signal (z-score) [26]: -0.843
- glycan array binding signal (z-score) [27]: -1.08
- glycan array binding signal (z-score) [28]: 2.94
- glycan array binding signal (z-score) [29]: 0.363
- glycan array binding signal (z-score) [30]: -0.227
- glycan array binding signal (z-score) [31]: 0.06
- glycan array binding signal (z-score) [32]: -0.657
- glycan array binding signal (z-score) [33]: -0.945
- glycan array binding signal (z-score) [34]: -0.72
- glycan array binding signal (z-score) [35]: 2.12
- glycan array binding signal (z-score) [36]: -0.077
- glycan array binding signal (z-score) [37]: -1.3
- glycan array binding signal (z-score) [38]: 0.1
- glycan array binding signal (z-score) [39]: -0.156
- glycan array binding signal (z-score) (Gal(b1-4)GlcNAc6P): 0.323
- glycan array binding signal (z-score) (Gal(b1-4)GlcNAc): -0.625
- glycan array binding signal (z-score) (Gal(b1-4)Glc): 2.29
- glycan array binding signal (z-score) (Gal(b1-6)Gal): -0.876
- glycan array binding signal (z-score) (Gal3S(b1-3)GalNAc): 0.611
- glycan array binding signal (z-score) (Gal3S(b1-3)GlcNAc): 0.986
- glycan array binding signal (z-score) [40]: 0.086
- glycan array binding signal (z-score) (Gal3S(b1-4)Glc6S): 1.37
- glycan array binding signal (z-score) (Gal3S(b1-4)GlcNAc6S): -0.421
- glycan array binding signal (z-score) (Gal3S(b1-4)GlcNAc): 0.136
